Data from patent US10807993B2, “Dihydrochromene derivatives” (Sumitomo Dainippon Pharma Co., Ltd., priority 2018, dated 2020).
For at least one compound, name, drawing or mass did not settle the structure.

System: HT-29 cells
Experiment: Inhibition test for sphere formation assay of cancer cells
Assay type: cell-based
Conditions: summary in words
Method: Reliable methods established for measuring the self-renewal ability of cells which is one of the CSC's properties include a method for measuring the sphere-forming ability of cancer cells in non-adherent condition in the absence of serum (Cancer Res 65, 5506-5511 (2005)). HT-29 cells were available from American Type Culture Collection (ATCC). HT-29 cells were cultured at 37° C. under 5% CO2 using the McCoy's 5a medium containing 10% fetal bovine serum (FBS) and 1% penicillin/streptomycin. HT-29 cells were seeded in a 384 Well Black Clear Bottom Ultra-Low Attachment Microplate (Corning Cat. No. 3827) in an amount of 350-800 cells/well using the DMEM/F12 medium containing 2% B27 supplement (GIBCO), 20 ng/mL epidermal growth factor (EGF) (peprotech), 10 ng/mL basic fibroblast growth factor (bFGF) (peprotech), 5 μg/mL insulin (Sigma), and 1% penicillin/streptomycin. Each test compound was added into each well to adjust the final concentration of DMSO to 0.1%, and the cells were cultured for 4 days. The number of viable cells in each well was then measured with CellTiter-Glo™ Luminescent Cell Viability Assay (Promega) to calculate the concentration of each test compound for 50% inhibition of cell proliferation (Sphere IC50 value; […])
The experiment of Test 1 was performed for each compound of each Example. […]

For `CC1(C)Oc2cc(Cl)ccc2C2OCC3(CCN(CCn4ccnc4)CC3)CC21` (racemic) [Example 38, Racemate of (4′aR,10′bR)-8′-chloro-1-[2-(1H-imidazol-1-yl)ethyl]-5′,5′-dimethyl-4′a,10′b-dihydro-2′H,4′H,5′H-spiro[piperidine-4,3′-pyrano[3,2-c][1]benzopyran] and (4′aS,10′bS)-8′-chloro-1-[2-(1H-imidazol-1-yl)ethyl]-5′,5′-dimethyl-4′a,10′b-dihydro-2′H,4′H,5′H-spiro[piperidine-4,3′-pyrano[3,2-c][1]benzopyran]], the “activity for inhibiting cell proliferation in the sphere culture condition” value was “potent activity”.
